Experimental data published in the supplement of paper PMC8728848.
The list shows a part of the results.

Assays:
Test in all cases: glycan array binding signal (z-score within array); higher = stronger binding
Conditions in all cases: glycan notation: IUPAC condensed, linker removed
[1] = molecular target: GlcNAc(b1-4)GlcNAc(b1-4)GlcNAc(b1-4)GlcNAc(b1-4)GlcNAc(b1-4)GlcNAc
Procedure, shortened: (§1)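 The binding signal is a Z-score computed within each array. Data were drawn from 3228 arrays in the Consortium for Functional Glycomics database, restricted to those with a known protein sequence. Scores were averaged over arrays of the same protein sequence at different concentrations or buffers, and over linkers, and negative values can be taken as non-binding.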

[2] = molecular target: GlcNAc(b1-4)[GlcNAc(b1-6)]GalNAc
Procedure, shortened: as §1

[3] = molecular target: GlcNAc(b1-6)Gal(b1-4)GlcNAc
Procedure, shortened: as §1

[4] = molecular target: GlcNAc(b1-6)GalNAc
Procedure, shortened: as §1

[5] = molecular target: GlcNAc6S(b1-3)Gal(b1-4)GlcNAc
Procedure, shortened: as §1

[6] = molecular target: Kdn(a2-3)Gal(b1-3)GalNAc
Procedure, shortened: as §1

[7] = molecular target: Kdn(a2-3)Gal(b1-3)GlcNAc
Procedure, shortened: as §1

[8] = molecular target: Kdn(a2-3)Gal(b1-4)Glc
Procedure, shortened: as §1

[9] = molecular target: Kdn(a2-3)Gal(b1-4)GlcNAc
Procedure, shortened: as §1

[10] = molecular target: Kdn(a2-3)Gal(b1-4)[Fuc(a1-3)]GlcNAc
Procedure, shortened: as §1

[11] = molecular target: Kdn(a2-6)Gal(b1-4)GlcNAc
Procedure, shortened: as §1

[12] = molecular target: Man(a1-2)Man(a1-2)Man(a1-3)Man
Procedure, shortened: as §1

[13] = molecular target: Man(a1-2)Man(a1-2)Man(a1-6)[Man(a1-3)]Man
Procedure, shortened: as §1

[14] = molecular target: Man(a1-2)Man(a1-3)Man
Procedure, shortened: as §1

[15] = molecular target: Man(a1-2)Man(a1-3)[Man(a1-2)Man(a1-6)]Man
Procedure, shortened: as §1

[16] = molecular target: Man(a1-2)Man(a1-3)[Man(a1-2)Man(a1-6)]Man(a1-6)[Man(a1-2)Man(a1-2)Man(a1-3)]Man
Procedure, shortened: as §1

[17] = molecular target: Man(a1-2)Man(a1-3)[Man(a1-2)Man(a1-6)]Man(a1-6)[Man(a1-2)Man(a1-2)Man(a1-3)]Man(b1-4)GlcNAc(b1-4)GlcNAc
Procedure, shortened: as §1

[18] = molecular target: Man(a1-2)Man(a1-3)[Man(a1-6)]Man(a1-6)[Man(a1-2)Man(a1-3)]Man(b1-4)GlcNAc(b1-4)GlcNAc
Procedure, shortened: as §1

[19] = molecular target: Man(a1-2)Man(a1-6)[Man(a1-3)]Man(a1-6)[Man(a1-2)Man(a1-2)Man(a1-3)]Man
Procedure, shortened: as §1

[20] = molecular target: Man(a1-2)Man(a1-6)[Man(a1-3)]Man(a1-6)[Man(a1-2)Man(a1-2)Man(a1-3)]Man(b1-4)GlcNAc(b1-4)GlcNAc
Procedure, shortened: as §1

[21] = molecular target: Man(a1-3)[Man(a1-6)]Man
Procedure, shortened: as §1

[22] = molecular target: Man(a1-3)[Man(a1-6)]Man(a1-6)[Man(a1-2)Man(a1-3)]Man(b1-4)GlcNAc(b1-4)GlcNAc
Procedure, shortened: as §1

[23] = molecular target: Man(a1-3)[Man(a1-6)]Man(a1-6)[Man(a1-3)]Man
Procedure, shortened: as §1

[24] = molecular target: Man(a1-3)[Man(a1-6)]Man(a1-6)[Man(a1-3)]Man(b1-4)GlcNAc(b1-4)GlcNAc
Procedure, shortened: as §1

[25] = molecular target: Man(a1-3)[Man(a1-6)]Man(b1-4)GlcNAc(b1-4)GlcNAc
Procedure, shortened: as §1

[26] = molecular target: Man(a1-3)[Man(a1-6)]Man(b1-4)GlcNAc(b1-4)[Fuc(a1-6)]GlcNAc
Procedure, shortened: as §1

[27] = molecular target: Man(a1-6)Man
Procedure, shortened: as §1

[28] = molecular target: Man(b1-4)GlcNAc
Procedure, shortened: as §1

[29] = molecular target: MurNAc(b1-4)GlcNAc
Procedure, shortened: as §1

[30] = molecular target: Neu5Ac(a2-3)Gal
Procedure, shortened: as §1

[31] = molecular target: Neu5Ac(a2-3)Gal(b1-3)GalNAc
Procedure, shortened: as §1

[32] = molecular target: Neu5Ac(a2-3)Gal(b1-3)GalNAc(b1-3)Gal(a1-4)Gal(b1-4)Glc
Procedure, shortened: as §1

[33] = molecular target: Neu5Ac(a2-3)Gal(b1-3)GalNAc(b1-4)[Neu5Ac(a2-3)]Gal(b1-4)Glc
Procedure, shortened: as §1

[34] = molecular target: Neu5Ac(a2-3)Gal(b1-3)GalNAc(b1-4)[Neu5Ac(a2-8)Neu5Ac(a2-3)]Gal(b1-4)Glc
Procedure, shortened: as §1

[35] = molecular target: Neu5Ac(a2-3)Gal(b1-3)GalNAc6S
Procedure, shortened: as §1

[36] = molecular target: Neu5Ac(a2-3)Gal(b1-3)GlcNAc
Procedure, shortened: as §1

[37] = molecular target: Neu5Ac(a2-3)Gal(b1-3)GlcNAc(b1-2)Man
Procedure, shortened: as §1

B1: HopZSSI-T (Helicobacter pylori), B5Z6D0 (protein)
chain: MGSSHHHHHHSSGLVPRGSHMENLYFQGEDNGFFISAGYQIGEAAQMVKNTGELKKLSDTYENLSNLLTNFNNLNQAVTNASSPSEINAAIDNLKANTQGLTGEKTNSPAYQAVYLALNAAVGLWNVIAYNVQCGPGNSSQQSVTFEGQPGHNSSSINCNLTGYNNGVSGPLSIDNFKQLNQAYQVLQQALKQGVPVLNNTNQKIEVKVTTQTNGQSSKETTTTTTTNDAQTLLQEASKMIDVLTTNCPWVNHNPGQNGGAPWGLIRQECVSGFATEFSAVTSMIKNAQEIVTQAQSLNANQNNQNAPQDFNPYTSADRAFAQNMLNHAQAQAKILELADQMKKDLNTIPSQFITNYLAACRIDGTTPSQGVTNNTWGAGCAYVEETITALNNSLAHFGTQAEQIKQSELLARTILDFRGSLSTLNSTYNSITTTASNTPNSPFLKNLISQSTNPNNPGGLQAVYQVNQSAYSQLLSATQELGHNPFRRIGLISSQT
[1]
  glycan array binding signal (z-score): -0.476
[2]
  glycan array binding signal (z-score): -0.345
[3]
  glycan array binding signal (z-score): -0.112
[4]
  glycan array binding signal (z-score): -0.307
[5]
  glycan array binding signal (z-score): -0.089
[6]
  glycan array binding signal (z-score): -0.302
[7]
  glycan array binding signal (z-score): 0.73
[8]
  glycan array binding signal (z-score): 0.371
[9]
  glycan array binding signal (z-score): 0.049
[10]
  glycan array binding signal (z-score): 0.44
[11]
  glycan array binding signal (z-score): 0.273
[12]
  glycan array binding signal (z-score): -0.506
[13]
  glycan array binding signal (z-score): -0.601
[14]
  glycan array binding signal (z-score): 0.122
[15]
  glycan array binding signal (z-score): 0.69
[16]
  glycan array binding signal (z-score): -0.136
[17]
  glycan array binding signal (z-score): -0.189
[18]
  glycan array binding signal (z-score): -0.802
[19]
  glycan array binding signal (z-score): -0.645
[20]
  glycan array binding signal (z-score): -0.122
[21]
  glycan array binding signal (z-score): 0.071
[22]
  glycan array binding signal (z-score): -0.359
[23]
  glycan array binding signal (z-score): -0.268
[24]
  glycan array binding signal (z-score): 0.762
[25]
  glycan array binding signal (z-score): -0.05
[26]
  glycan array binding signal (z-score): -0.579
[27]
  glycan array binding signal (z-score): 1.01
[28]
  glycan array binding signal (z-score): 0.94
[29]
  glycan array binding signal (z-score): -0.781
[30]
  glycan array binding signal (z-score): -0.232
[31]
  glycan array binding signal (z-score): -0.544
[32]
  glycan array binding signal (z-score): -0.102
[33]
  glycan array binding signal (z-score): -0.375
[34]
  glycan array binding signal (z-score): 0.208
[35]
  glycan array binding signal (z-score): 0.457
[36]
  glycan array binding signal (z-score): -0.085
[37]
  glycan array binding signal (z-score): 0.984
